For two molecules, binding results are on record in publication PMC3795029.

Assay [1] deals with VN-Tbx2a (zebrafish (Danio rerio)). Nature of the assay: split reporter; BiFC with split Venus (VN154m10 / VC155) fused N-terminally; pairs of pCS2 constructs transfected into HEK 293T cells (jetPRIME), 0.3-0.5 µg per construct per 3.5 cm plate; nuclear Venus fluorescence seen by confocal microscopy, vital DAPI.
Assay [2] deals with VC-Tbx2a (zebrafish (Danio rerio)). The description is as above.

These are yes or no findings as the source states them, for the method shown. Binding seen in cells or lysates may run through a third protein. A result given as binding can be weak or reduced; the word gives no strength.

B1: VC-Tbx1 (protein, UniProt Q8AXX2 1-460)
chain: MISAISSPWLTQLSHFCDVAAFTTSSLSSLNTPGSYHLSPSPGDPYSHHESQFEPCPAAQHAYNYSGSNSAQAPAQGDSGTSNCSSSSSSSTPNKTLVKKNPKVANINVQLEMKALWDEFNQLGTEMIVTKAGRRMFPTFQVKIFGMDPMADYMLLMDFLPVDDKRYRYAFHSSSWLVAGKADPATPGRVHYHPDSPAKGAQWMKQIVSFDKLKLTNNLLDDNGHIILNSMHRYQPRFHVVYVDPRKDSEKYAEENYKTFVFEETRFTAVTAYQNHRITQLKIASNPFAKGFRDCDPEDWPRNHRPGSLQIMSAFARTRNPMSSPPQQNGTEKEDSRREYDRDPSGNPLHSDPTHQLMSRVLSPALPVLGGLHAVPLTAGPRSPPHELRLDGHPQPPDTLHHHPYKYPATYEHYLGAKTRPSPYPSPSIRGHGYHPHMNPTTANMYSATSAPTNYDYGPR
With B1, the binding entry in assay [1] is recorded as “binds”.

B2: VN-Tbx1 (protein, UniProt Q8AXX2 1-460)
chain: MISAISSPWLTQLSHFCDVAAFTTSSLSSLNTPGSYHLSPSPGDPYSHHESQFEPCPAAQHAYNYSGSNSAQAPAQGDSGTSNCSSSSSSSTPNKTLVKKNPKVANINVQLEMKALWDEFNQLGTEMIVTKAGRRMFPTFQVKIFGMDPMADYMLLMDFLPVDDKRYRYAFHSSSWLVAGKADPATPGRVHYHPDSPAKGAQWMKQIVSFDKLKLTNNLLDDNGHIILNSMHRYQPRFHVVYVDPRKDSEKYAEENYKTFVFEETRFTAVTAYQNHRITQLKIASNPFAKGFRDCDPEDWPRNHRPGSLQIMSAFARTRNPMSSPPQQNGTEKEDSRREYDRDPSGNPLHSDPTHQLMSRVLSPALPVLGGLHAVPLTAGPRSPPHELRLDGHPQPPDTLHHHPYKYPATYEHYLGAKTRPSPYPSPSIRGHGYHPHMNPTTANMYSATSAPTNYDYGPR
Consider B2, for which the binding result in assay [2] was “binds”.
